Results are given in words; binding and its absence hold for the method and conditions named. In cells and extracts the contact can be indirect. Some entries that bind do so weakly or less than the wild type.
B1: myosin light chain 9 (MYL9) (protein, UniProt P24844 1-172)
chain: MSSKRAKAKTTKKRPQRATSNVFAMFDQSQIQEFKEAFNMIDQNRDGFIDKEDLHDMLASLGKNPTDEYLEGMMSEAPGPINFTMFLTMFGEKLNGTDPEDVIRNAFACFDEEASGFIHEDHLRELLTTMGDRFTDEEVDEMYREAPIDKKGNFNYVEFTRILKHGAKDKDD

Sequences of proteins named here, by UniProt entry; tags and fusion partners are left off.
UniProt P35579: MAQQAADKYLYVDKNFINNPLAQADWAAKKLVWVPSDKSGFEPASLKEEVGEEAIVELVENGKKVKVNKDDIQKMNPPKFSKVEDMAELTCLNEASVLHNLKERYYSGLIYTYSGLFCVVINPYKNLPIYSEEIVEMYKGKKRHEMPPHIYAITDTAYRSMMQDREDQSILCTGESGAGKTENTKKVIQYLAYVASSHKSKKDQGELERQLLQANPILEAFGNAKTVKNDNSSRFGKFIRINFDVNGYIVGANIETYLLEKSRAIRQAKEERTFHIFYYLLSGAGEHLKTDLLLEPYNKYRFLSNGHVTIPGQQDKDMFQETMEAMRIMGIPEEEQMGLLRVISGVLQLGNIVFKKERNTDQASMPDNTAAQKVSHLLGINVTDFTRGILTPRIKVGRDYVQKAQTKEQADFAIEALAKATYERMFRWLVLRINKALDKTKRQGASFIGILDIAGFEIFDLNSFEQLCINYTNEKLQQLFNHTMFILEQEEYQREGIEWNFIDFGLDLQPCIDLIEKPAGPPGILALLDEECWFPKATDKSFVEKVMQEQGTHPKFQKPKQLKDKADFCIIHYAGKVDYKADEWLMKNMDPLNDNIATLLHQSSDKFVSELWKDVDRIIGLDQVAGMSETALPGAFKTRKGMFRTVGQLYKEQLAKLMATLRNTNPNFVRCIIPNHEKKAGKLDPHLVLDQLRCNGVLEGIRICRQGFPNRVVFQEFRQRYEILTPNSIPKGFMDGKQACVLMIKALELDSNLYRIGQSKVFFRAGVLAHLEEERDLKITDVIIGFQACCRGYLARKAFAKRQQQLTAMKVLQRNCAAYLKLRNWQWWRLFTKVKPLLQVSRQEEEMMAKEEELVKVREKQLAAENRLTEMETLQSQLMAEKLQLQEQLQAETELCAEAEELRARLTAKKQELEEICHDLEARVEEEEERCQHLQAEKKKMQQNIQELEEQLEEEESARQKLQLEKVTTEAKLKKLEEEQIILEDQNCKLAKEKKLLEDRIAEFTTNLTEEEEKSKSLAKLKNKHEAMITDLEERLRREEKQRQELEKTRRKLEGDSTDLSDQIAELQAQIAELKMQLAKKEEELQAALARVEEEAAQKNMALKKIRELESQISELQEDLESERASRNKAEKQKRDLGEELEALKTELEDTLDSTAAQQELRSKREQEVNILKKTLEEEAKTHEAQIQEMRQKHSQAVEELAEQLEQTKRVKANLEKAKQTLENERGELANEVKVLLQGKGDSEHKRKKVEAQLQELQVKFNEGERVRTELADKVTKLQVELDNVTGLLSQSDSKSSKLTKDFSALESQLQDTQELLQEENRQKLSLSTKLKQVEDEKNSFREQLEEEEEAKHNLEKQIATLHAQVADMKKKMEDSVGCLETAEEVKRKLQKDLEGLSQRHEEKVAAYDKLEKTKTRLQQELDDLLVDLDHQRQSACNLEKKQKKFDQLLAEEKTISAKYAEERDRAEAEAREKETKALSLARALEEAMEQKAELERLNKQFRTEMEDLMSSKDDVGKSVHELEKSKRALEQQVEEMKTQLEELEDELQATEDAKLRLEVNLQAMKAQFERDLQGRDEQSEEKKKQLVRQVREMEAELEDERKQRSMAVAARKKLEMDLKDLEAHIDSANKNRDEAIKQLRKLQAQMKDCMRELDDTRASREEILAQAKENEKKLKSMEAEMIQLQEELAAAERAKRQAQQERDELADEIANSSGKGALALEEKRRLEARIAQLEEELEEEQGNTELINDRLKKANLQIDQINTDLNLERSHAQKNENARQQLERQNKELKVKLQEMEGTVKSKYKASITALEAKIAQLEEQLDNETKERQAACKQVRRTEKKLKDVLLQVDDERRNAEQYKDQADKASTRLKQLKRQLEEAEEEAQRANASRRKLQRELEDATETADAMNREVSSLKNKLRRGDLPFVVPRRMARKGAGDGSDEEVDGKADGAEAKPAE
UniProt Q00403: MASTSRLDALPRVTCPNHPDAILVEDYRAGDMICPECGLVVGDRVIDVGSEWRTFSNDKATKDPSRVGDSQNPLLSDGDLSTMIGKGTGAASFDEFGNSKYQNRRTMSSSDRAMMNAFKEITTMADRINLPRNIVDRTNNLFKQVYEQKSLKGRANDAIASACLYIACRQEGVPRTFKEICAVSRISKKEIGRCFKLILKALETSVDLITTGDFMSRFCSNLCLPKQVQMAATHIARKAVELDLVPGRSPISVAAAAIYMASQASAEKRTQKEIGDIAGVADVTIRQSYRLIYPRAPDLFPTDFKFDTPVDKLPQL

Biological target: myosin heavy chain 9 (MYH9) (human (endogenous in MGC 80-3)) (UniProt P35579)
Assay: co-IP; nuclear protein extract of MGC 80-3 cells, IP with a MYH9 antibody, western blot; rabbit IgG as negative control

Molecule	binding
transcription factor II B (TFIIB) (from UniProt Q00403 1-316)	binds
B1	binds

From PMC7359096
